Test results: the supplement of paper PMC10849652
The list shows a part of the results.

Protein sequences, listed by entry. Tags and fused reporters are not part of them. Lines headed by an entry give the natural chain unless they say otherwise; changes in a name come on top.
UniProt Q9Y3D8, whole entry, looked up: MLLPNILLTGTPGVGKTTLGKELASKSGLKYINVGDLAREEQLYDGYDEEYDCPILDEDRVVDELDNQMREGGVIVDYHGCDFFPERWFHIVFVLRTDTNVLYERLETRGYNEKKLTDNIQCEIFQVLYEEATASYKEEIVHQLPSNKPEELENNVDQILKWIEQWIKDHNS
UniProt P54886: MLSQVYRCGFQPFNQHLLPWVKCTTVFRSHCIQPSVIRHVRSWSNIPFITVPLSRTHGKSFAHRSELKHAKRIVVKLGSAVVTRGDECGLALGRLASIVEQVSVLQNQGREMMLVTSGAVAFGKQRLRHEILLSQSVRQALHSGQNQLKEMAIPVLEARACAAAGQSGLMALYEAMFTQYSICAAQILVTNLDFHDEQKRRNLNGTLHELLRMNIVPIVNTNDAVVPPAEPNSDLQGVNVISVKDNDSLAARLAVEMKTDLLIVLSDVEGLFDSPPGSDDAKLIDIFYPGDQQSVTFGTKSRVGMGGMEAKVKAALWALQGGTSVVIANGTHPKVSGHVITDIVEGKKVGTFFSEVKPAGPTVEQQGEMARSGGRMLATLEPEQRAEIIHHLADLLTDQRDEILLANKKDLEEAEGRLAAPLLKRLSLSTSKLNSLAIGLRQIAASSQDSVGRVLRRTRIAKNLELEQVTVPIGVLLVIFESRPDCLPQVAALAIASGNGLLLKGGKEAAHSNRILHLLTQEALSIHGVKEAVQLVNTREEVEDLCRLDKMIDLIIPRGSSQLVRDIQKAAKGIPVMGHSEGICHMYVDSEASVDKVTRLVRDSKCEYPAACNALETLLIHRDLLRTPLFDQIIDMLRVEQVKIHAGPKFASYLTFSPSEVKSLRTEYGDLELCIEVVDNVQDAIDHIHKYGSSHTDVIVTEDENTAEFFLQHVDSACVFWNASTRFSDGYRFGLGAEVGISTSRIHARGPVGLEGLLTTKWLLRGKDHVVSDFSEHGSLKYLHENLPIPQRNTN
UniProt P00352: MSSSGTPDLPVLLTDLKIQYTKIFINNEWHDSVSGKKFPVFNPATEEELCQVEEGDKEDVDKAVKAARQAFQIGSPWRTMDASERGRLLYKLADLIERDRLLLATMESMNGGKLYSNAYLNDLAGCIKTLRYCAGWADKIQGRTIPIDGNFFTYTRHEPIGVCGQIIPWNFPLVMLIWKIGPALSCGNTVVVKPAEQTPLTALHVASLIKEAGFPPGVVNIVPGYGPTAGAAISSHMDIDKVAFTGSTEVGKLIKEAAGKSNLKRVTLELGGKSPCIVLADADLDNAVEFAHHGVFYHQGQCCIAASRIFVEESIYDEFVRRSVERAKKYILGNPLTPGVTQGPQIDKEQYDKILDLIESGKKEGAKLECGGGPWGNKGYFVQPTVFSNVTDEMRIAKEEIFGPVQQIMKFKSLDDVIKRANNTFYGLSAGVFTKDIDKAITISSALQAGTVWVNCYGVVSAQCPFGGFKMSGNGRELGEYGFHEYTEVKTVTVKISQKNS
UniProt Q6RW13: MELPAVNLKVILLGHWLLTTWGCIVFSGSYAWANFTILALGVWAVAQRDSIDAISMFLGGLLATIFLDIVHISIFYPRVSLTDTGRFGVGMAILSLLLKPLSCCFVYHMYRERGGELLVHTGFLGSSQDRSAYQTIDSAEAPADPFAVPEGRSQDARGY
UniProt P13716: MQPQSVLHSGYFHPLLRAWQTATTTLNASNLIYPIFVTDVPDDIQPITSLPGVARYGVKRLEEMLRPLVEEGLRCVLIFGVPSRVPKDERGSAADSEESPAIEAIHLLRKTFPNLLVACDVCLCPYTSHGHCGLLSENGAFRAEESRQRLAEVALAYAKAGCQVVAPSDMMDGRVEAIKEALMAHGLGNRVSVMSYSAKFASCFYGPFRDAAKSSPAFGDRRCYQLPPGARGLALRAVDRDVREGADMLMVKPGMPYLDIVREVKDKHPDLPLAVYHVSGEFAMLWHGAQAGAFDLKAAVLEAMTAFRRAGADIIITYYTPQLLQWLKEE
UniProt Q12904: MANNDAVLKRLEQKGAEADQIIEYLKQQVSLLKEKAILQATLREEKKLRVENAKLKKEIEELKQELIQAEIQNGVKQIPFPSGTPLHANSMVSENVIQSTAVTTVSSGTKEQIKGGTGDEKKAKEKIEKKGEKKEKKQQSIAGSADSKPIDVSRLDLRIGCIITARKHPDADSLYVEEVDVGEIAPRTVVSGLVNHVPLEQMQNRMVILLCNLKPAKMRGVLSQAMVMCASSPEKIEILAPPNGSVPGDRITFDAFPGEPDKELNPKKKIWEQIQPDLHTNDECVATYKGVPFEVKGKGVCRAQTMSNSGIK
UniProt Q9UM13, whole entry, looked up: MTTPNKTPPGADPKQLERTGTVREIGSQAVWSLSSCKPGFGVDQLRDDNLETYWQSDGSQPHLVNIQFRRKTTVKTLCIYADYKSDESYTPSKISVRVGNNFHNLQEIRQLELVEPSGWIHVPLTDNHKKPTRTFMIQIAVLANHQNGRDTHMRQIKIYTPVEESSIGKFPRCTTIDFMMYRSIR
UniProt P30566: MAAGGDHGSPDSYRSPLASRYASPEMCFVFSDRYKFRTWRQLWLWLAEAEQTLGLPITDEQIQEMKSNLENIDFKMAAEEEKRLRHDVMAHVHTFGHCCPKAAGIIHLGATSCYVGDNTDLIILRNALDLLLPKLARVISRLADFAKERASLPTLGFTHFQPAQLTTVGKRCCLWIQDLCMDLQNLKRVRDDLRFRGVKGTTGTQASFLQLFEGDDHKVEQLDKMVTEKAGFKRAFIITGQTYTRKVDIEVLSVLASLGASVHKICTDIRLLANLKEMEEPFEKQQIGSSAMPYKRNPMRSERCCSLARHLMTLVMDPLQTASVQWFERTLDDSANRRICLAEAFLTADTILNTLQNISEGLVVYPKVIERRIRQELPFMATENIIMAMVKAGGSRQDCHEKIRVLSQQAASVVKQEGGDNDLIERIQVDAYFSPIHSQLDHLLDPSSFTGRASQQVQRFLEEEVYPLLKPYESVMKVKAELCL
UniProt P35612: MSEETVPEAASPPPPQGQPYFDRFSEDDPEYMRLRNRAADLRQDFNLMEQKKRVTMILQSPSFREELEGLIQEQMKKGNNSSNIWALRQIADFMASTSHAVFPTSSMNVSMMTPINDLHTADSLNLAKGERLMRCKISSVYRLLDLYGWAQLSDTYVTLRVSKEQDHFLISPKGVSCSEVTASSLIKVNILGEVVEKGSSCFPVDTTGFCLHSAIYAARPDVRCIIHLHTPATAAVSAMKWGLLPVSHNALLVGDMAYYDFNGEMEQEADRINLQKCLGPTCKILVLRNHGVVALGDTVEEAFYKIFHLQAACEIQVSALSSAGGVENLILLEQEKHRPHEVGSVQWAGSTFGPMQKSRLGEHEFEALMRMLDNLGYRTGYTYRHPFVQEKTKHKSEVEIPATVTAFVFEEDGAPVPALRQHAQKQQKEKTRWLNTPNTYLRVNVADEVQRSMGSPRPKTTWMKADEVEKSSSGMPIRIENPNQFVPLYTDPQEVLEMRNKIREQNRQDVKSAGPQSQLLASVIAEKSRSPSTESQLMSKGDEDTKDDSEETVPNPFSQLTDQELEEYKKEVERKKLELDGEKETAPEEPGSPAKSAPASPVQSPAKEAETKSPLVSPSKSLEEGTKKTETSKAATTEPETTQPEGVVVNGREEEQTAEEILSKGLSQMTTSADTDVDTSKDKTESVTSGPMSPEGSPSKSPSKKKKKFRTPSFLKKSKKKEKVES
UniProt Q92685: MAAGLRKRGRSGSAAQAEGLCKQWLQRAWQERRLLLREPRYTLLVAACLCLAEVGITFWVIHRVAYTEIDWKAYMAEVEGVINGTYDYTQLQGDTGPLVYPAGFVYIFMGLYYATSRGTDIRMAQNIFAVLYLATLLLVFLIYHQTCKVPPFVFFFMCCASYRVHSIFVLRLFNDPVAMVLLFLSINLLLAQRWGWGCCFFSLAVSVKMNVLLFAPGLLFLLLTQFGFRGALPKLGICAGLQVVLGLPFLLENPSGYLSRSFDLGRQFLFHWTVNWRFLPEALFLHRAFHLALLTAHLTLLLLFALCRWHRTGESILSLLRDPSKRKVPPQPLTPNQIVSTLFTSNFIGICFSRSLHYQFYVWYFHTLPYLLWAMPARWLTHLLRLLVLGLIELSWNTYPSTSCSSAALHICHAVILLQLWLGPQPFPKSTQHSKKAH
UniProt Q9UKV5, whole entry, looked up: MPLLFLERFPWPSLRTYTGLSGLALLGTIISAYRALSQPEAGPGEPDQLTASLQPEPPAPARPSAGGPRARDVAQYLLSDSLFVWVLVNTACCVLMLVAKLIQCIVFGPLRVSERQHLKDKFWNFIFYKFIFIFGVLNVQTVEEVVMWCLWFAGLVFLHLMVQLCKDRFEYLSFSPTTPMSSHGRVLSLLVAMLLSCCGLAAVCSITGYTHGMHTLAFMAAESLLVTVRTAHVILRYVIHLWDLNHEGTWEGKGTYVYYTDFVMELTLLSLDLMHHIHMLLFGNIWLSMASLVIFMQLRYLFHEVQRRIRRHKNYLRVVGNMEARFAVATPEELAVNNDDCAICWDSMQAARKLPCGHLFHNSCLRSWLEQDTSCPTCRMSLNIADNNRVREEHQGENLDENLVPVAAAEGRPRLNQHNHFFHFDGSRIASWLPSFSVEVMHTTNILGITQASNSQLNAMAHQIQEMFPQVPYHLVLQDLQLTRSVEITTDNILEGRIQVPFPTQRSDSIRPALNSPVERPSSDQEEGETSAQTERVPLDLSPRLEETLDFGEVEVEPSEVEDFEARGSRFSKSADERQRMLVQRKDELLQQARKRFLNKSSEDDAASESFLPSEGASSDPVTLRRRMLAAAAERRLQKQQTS
UniProt P52895: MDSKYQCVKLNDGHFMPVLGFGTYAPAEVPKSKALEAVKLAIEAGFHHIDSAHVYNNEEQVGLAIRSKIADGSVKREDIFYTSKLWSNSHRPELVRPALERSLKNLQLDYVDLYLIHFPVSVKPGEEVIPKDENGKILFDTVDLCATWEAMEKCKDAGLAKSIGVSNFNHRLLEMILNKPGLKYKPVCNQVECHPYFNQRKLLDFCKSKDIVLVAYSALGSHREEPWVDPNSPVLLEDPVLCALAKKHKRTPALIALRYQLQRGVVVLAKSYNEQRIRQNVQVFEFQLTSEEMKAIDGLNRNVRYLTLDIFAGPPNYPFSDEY
UniProt Q9Y673: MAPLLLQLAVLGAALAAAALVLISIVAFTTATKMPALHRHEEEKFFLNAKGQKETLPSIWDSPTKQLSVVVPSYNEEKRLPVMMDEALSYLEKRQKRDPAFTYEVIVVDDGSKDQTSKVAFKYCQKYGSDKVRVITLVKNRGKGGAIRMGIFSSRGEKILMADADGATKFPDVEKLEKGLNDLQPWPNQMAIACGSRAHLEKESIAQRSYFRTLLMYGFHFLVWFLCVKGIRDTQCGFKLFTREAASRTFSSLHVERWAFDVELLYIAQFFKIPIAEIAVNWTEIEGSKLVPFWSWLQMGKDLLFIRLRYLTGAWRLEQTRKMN
UniProt Q9NUQ2: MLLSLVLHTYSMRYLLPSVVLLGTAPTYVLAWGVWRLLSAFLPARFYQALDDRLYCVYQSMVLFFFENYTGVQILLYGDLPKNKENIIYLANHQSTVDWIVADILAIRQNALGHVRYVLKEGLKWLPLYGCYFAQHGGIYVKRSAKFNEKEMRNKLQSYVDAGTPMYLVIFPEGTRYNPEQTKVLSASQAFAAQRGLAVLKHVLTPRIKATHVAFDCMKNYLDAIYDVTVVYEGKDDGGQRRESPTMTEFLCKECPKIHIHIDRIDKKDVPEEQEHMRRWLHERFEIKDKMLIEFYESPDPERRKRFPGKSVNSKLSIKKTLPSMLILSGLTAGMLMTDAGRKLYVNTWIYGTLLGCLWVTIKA
UniProt Q6P6C2: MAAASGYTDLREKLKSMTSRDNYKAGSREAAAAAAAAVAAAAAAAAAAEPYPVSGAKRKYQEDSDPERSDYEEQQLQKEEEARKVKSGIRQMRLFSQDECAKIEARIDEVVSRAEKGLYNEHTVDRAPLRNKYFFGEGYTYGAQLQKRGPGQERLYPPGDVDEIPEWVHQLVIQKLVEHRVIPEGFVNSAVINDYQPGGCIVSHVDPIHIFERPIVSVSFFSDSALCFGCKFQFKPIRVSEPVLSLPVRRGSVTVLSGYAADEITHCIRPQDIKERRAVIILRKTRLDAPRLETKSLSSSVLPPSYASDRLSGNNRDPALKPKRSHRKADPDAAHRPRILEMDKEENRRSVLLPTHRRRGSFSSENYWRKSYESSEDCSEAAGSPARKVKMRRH

What was measured:
Assay in all cases: log2 fold change, soluble protein after heating vs DMSO (PISA); higher = thermal stabilisation; K562 cells, 10 uM, 30 min; active = over 0.2 and 3.5 SD of the protein, either way, in both replicates (recomputed)
bafetinib = compound: Cc1ccc(NC(=O)c2ccc(CN3CC[C@H](N(C)C)C3)c(C(F)(F)F)c2)cc1Nc1nccc(-c2cncnc2)n1 [bafetinib]
Summary of the method: (§1)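 K562 cells at 2×10^6 cells/mL were treated with 10 μM compound for 30 min. Aliquots were heated for 3 min across 48°C-58°C, pooled, and extracted in PBS with 0.5% NP-40 at 4°C; soluble protein was the supernatant after 21,000xg for 90 min. Soluble protein was quantified by TMTpro 16plex LC-MS/MS with channel sums equalised, and reported as log2 fold change in thermal stability against DMSO controls, with values from duplicates.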

[1] = compound: Cc1cccc(CC(=O)N2CCc3c2ccc(-c2cn(C)c4ncnc(N)c24)c3F)n1
Summary of the method: as §1

nilotinib = compound: Cc1cn(-c2cc(NC(=O)c3ccc(C)c(Nc4nccc(-c5cccnc5)n4)c3)cc(C(F)(F)F)c2)cn1 [nilotinib]
Summary of the method: as §1

[2] = compound: Cc1nc(Nc2n[nH]c3c2CN(C(=O)N[C@H](CN(C)C)c2ccccc2)C3(C)C)c2sccc2n1
Summary of the method: as §1

dasatinib = compound: Cc1nc(Nc2ncc(C(=O)Nc3c(C)cccc3Cl)s2)cc(N2CCN(CCO)CC2)n1 [dasatinib]
Summary of the method: as §1

[3] = compound: Cc1ncc(-c2ccnc(Nc3ccc(S(C)(=O)=O)cc3)n2)n1C(C)C
Summary of the method: as §1

[4] = compound: Cn1cc(-c2ccc3c(c2)CCN3C(=O)Cc2cccc(C(F)(F)F)c2)c2c(N)ncnc21
Summary of the method: as §1

[5] = compound: Cn1cc(-c2ccc3nnc(C(F)(F)c4ccc5ncccc5c4)n3n2)cn1
Summary of the method: as §1

tipifarnib = compound: Cn1cncc1[C@@](N)(c1ccc(Cl)cc1)c1ccc2c(c1)c(-c1cccc(Cl)c1)cc(=O)n2C [tipifarnib]
Summary of the method: as §1

mubritinib = compound: FC(F)(F)c1ccc(/C=C/c2nc(COc3ccc(CCCCn4ccnn4)cc3)co2)cc1 [mubritinib]
Summary of the method: as §1

[6] = compound: NC(=O)Nc1cc(-c2cccc(F)c2)sc1C(=O)N[C@H]1CCCNC1
Summary of the method: as §1

[7] = compound: NC(=O)c1cnc(N[C@@H]2CCCC[C@@H]2N)nc1Nc1cccc(-n2nccn2)c1
Summary of the method: as §1

[8] = compound: NC1(c2ccc(-c3nc4ccn5c(=O)[nH]nc5c4cc3-c3ccccc3)cc2)CCC1
Summary of the method: as §1

[9] = compound: NCC(=O)Nc1ccc(-n2nc(C(F)(F)F)cc2-c2ccc3c(ccc4ccccc43)c2)cc1
Summary of the method: as §1

entinostat = compound: Nc1ccccc1NC(=O)c1ccc(CNC(=O)OCc2cccnc2)cc1 [entinostat]
Summary of the method: as §1

vorinostat = compound: O=C(CCCCCCC(=O)Nc1ccccc1)NO [vorinostat]
Summary of the method: as §1

citarinostat = compound: O=C(CCCCCCNC(=O)c1cnc(N(c2ccccc2)c2ccccc2Cl)nc1)NO [citarinostat]
Summary of the method: as §1

silmitasertib = compound: O=C(O)c1ccc2c(c1)nc(Nc1cccc(Cl)c1)c1ccncc12 [silmitasertib]
Summary of the method: as §1

[10] = compound: O=C1NC(=O)C(c2cnc3ccccn23)=C1c1cn2c3c(cc(F)cc13)CN(C(=O)N1CCCCC1)CC2
Summary of the method: as §1

[11] = compound: c1cc(OCCN2CCCCC2)cc(-c2n[nH]c3ccc(-c4nnc[nH]4)cc23)c1
Summary of the method: as §1

Measured: log2 fold change

AK6 (UniProt Q9Y3D8)
inactive: bafetinib 0.021 | [1] -0.018 | nilotinib -0.141 | [2] -0.143 | dasatinib -0.288 | [3] -0.015 | [4] 0 | [5] 0.025 | tipifarnib -0.144 | mubritinib -0.114 | [6] -0.034 | [7] -0.072 | [8] -0.043 | [9] -0.138 | entinostat 0.145 | vorinostat 0.074 | citarinostat 0.103 | silmitasertib 0.058 | [10] -0.051 | [11] -0.009

ALDH18A1 (UniProt P54886)
active: mubritinib -0.561
inactive: bafetinib -0.206 | [1] 0.071 | nilotinib -0.3 | [2] -0.15 | dasatinib -0.133 | [3] 0.042 | [4] -0.202 | [5] -0.128 | tipifarnib -0.141 | [6] 0.033 | [7] -0.03 | [8] -0.34 | [9] -0.219 | entinostat 0.249 | vorinostat 0.194 | citarinostat 0.031 | silmitasertib 0.018 | [10] -0.329 | [11] -0.372

ALDH1A1 (UniProt P00352)
inactive: bafetinib -0.013 | [1] -0.037 | nilotinib 0.034 | [2] -0.009 | dasatinib 0.031 | [3] 0.007 | [4] 0.044 | [5] 0.011 | tipifarnib -0.044 | mubritinib 0.049 | [6] 0.008 | [7] 0.021 | [8] -0.025 | [9] 0.047 | entinostat -0.034 | vorinostat 0.085 | citarinostat 0.02 | silmitasertib -0.025 | [10] -0.088 | [11] -0.041

AGTRAP (UniProt Q6RW13)
inactive: bafetinib -0.08 | [1] 0.005 | nilotinib 0.103 | [2] 0.045 | dasatinib 0.03 | [3] -0.019 | [4] -0.029 | [5] -0.007 | tipifarnib 0.094 | mubritinib -0.027 | [6] -0.043 | [7] -0.006 | [8] 0.012 | [9] 0.002 | entinostat -0.041 | vorinostat -0.021 | citarinostat 0.063 | silmitasertib 0.068 | [10] 0.002 | [11] -0.034

ALAD isoform 2 (UniProt P13716)
inactive: bafetinib -0.009 | [1] -0.006 | nilotinib -0.032 | [2] 0.077 | dasatinib 0.031 | [3] 0.005 | [4] -0.007 | [5] -0.027 | tipifarnib 0.07 | mubritinib -0.013 | [6] 0 | [7] 0.058 | [8] -0.003 | [9] 0 | entinostat -0.032 | vorinostat 0.011 | citarinostat -0.013 | silmitasertib -0.02 | [10] -0.025 | [11] 0.059

AIMP1 isoform 2 (UniProt Q12904)
inactive: bafetinib 0.168 | [1] -0.006 | nilotinib -0.071 | [2] 0.019 | dasatinib 0.044 | [3] 0.064 | [4] -0.158 | [5] -0.229 | tipifarnib -0.041 | mubritinib -0.104 | [6] 0.158 | [7] 0.02 | [8] 0.294 | [9] 0.099 | entinostat 0.016 | vorinostat 0.064 | citarinostat -0.067 | silmitasertib 0.297 | [10] 0.167 | [11] -0.164

ANAPC10 (UniProt Q9UM13)
inactive: bafetinib -0.01 | [1] 0.088 | nilotinib 0.002 | [2] -0.026 | dasatinib 0.007 | [3] -0.011 | [4] -0.058 | [5] -0.012 | tipifarnib 0.03 | mubritinib 0.027 | [6] 0.061 | [7] -0.005 | [8] -0.037 | [9] 0.042 | entinostat 0.043 | vorinostat 0.094 | citarinostat 0.237 | silmitasertib -0.026 | [10] -0.048 | [11] 0.031

ADSL (UniProt P30566)
inactive: bafetinib -0.042 | [1] -0.043 | nilotinib 0.013 | [2] -0.004 | dasatinib 0.041 | [3] -0.024 | [4] -0.006 | [5] 0.019 | tipifarnib -0.003 | mubritinib 0.038 | [6] 0.039 | [7] 0.035 | [8] 0.027 | [9] 0.018 | entinostat -0.01 | vorinostat -0.044 | citarinostat -0.006 | silmitasertib -0.016 | [10] -0.057 | [11] -0.005

ADD2 (UniProt P35612)
inactive: bafetinib 0.012 | [1] 0.011 | nilotinib 0.022 | [2] -0.026 | dasatinib -0.033 | [3] -0.048 | [4] 0.029 | [5] 0.001 | tipifarnib 0.035 | mubritinib 0.011 | [6] 0.048 | [7] 0.039 | [8] 0.036 | [9] 0.024 | entinostat -0.038 | vorinostat 0.023 | citarinostat 0.024 | silmitasertib -0.054 | [10] -0.092 | [11] 0.013

ALG3 (UniProt Q92685)
inactive: bafetinib -0.047 | [1] 0.075 | nilotinib 0.002 | [2] 0.021 | dasatinib 0.031 | [3] 0.017 | [4] -0.065 | [5] 0.013 | tipifarnib -0.062 | mubritinib 0.006 | [6] -0.039 | [7] -0.037 | [8] -0.006 | [9] 0.045 | entinostat 0.172 | vorinostat -0.046 | citarinostat -0.051 | silmitasertib 0.034 | [10] -0.055 | [11] -0.027

AMFR (UniProt Q9UKV5)
inactive: bafetinib -0.095 | [1] 0.099 | nilotinib -0.051 | [2] -0.016 | dasatinib -0.094 | [3] 0.049 | [4] 0.029 | [5] -0.06 | tipifarnib 0.05 | mubritinib -0.018 | [6] -0.024 | [7] -0.128 | [8] -0.115 | [9] -0.075 | entinostat 0.051 | vorinostat 0.055 | citarinostat 0.012 | silmitasertib 0.07 | [10] -0.032 | [11] 0.021

AKR1C2 (UniProt P52895)
inactive: bafetinib 0.103 | [1] -0.111 | nilotinib 0.029 | [2] -0.057 | dasatinib -0.012 | [3] 0.028 | [4] -0.07 | [5] 0.223 | tipifarnib 0.271 | mubritinib -0.06 | [6] 0.133 | [7] -0.092 | [8] 0.206 | [9] -0.006 | entinostat -0.129 | vorinostat 0.012 | citarinostat 0.018 | silmitasertib 0.257 | [10] 0.079 | [11] -0.076

ALG5 (UniProt Q9Y673)
inactive: bafetinib 0.021 | [1] 0.067 | nilotinib 0.009 | [2] -0.123 | dasatinib -0.045 | [3] -0.121 | [4] 0.088 | [5] 0.059 | tipifarnib -0.079 | mubritinib -0.055 | [6] -0.047 | [7] -0.129 | [8] -0.029 | [9] -0.031 | entinostat 0.02 | vorinostat 0.052 | citarinostat 0.051 | silmitasertib 0.075 | [10] -0.106 | [11] 0.08

AGPAT5 (UniProt Q9NUQ2)
inactive: bafetinib -0.133 | [1] 0.021 | nilotinib 0.008 | [2] 0.04 | dasatinib -0.058 | [3] -0.035 | [4] 0.09 | [5] 0.045 | tipifarnib 0.02 | mubritinib 0.014 | [6] -0.044 | [7] 0.016 | [8] -0.029 | [9] -0.047 | entinostat -0.027 | vorinostat -0.002 | citarinostat 0.045 | silmitasertib -0.001 | [10] -0.076 | [11] -0.027

Reprinted at random: 2 records from the list, in no set order.
ALG5 (UniProt Q9Y673)
inactive: bafetinib 0.021 | [1] 0.067 | nilotinib 0.009 | [2] -0.123 | dasatinib -0.045 | [3] -0.121 | [4] 0.088 | [5] 0.059 | tipifarnib -0.079 | mubritinib -0.055 | [6] -0.047 | [7] -0.129 | [8] -0.029 | [9] -0.031 | entinostat 0.02 | vorinostat 0.052 | citarinostat 0.051 | silmitasertib 0.075 | [10] -0.106 | [11] 0.08

AGPAT5 (UniProt Q9NUQ2)
inactive: bafetinib -0.133 | [1] 0.021 | nilotinib 0.008 | [2] 0.04 | dasatinib -0.058 | [3] -0.035 | [4] 0.09 | [5] 0.045 | tipifarnib 0.02 | mubritinib 0.014 | [6] -0.044 | [7] 0.016 | [8] -0.029 | [9] -0.047 | entinostat -0.027 | vorinostat -0.002 | citarinostat 0.045 | silmitasertib -0.001 | [10] -0.076 | [11] -0.027

Later entries.

ALKBH5 (UniProt Q6P6C2)
inactive: bafetinib 0.038 | [1] -0.15 | nilotinib 0.018 | [2] -0.025 | dasatinib 0.014 | [3] 0.011 | [4] -0.042 | [5] 0.011 | tipifarnib 0.077 | mubritinib -0.019 | [6] 0.031 | [7] -0.021 | [8] 0.102 | [9] 0.052 | entinostat -0.076 | vorinostat 0.18 | citarinostat 0.109 | silmitasertib 0.033 | [10] 0.076 | [11] 0.042
